For assay [1], the target named is DAPK-Myc, in Jurkat cells (UniProt P53355). In words: co-IP; Jurkat cells transfected with FLAG-PHD2 and DAPK-Myc; whole-cell lysates immunoprecipitated with anti-Myc; blots with anti-FLAG and anti-Myc.
Assay [2] deals with DAPK-FLAG (death-associated protein kinase, FLAG-tagged) (UniProt P53355). The assay is described as follows: co-IP; HEK293T transfected with DAPK-FLAG or HIF-1α; whole-cell lysates immunoprecipitated with anti-FLAG or anti-HIF-1α; western blot.
Assay [3] addresses DAPK in Jurkat cells (human (endogenous in Jurkat)) (UniProt P53355). The assay is described as follows: co-IP; normoxic and hypoxic (1% O2 for 4 h) Jurkat cells; DAPK precipitated by anti-DAPK; associated HIF-1α by western blot.
Assay [4] concerns the target DAPK-Myc, in HEK293T cells (UniProt P53355). In words: co-IP; HEK293T transfected with DAPK-Myc and the N-terminal (aa 1–180) or C-terminal (aa 181–426) domain of FLAG-PHD2; lysates immunoprecipitated with anti-Myc; western blot.

Chains of the proteins cited; added tags and fusions are not shown.
UniProt P53355: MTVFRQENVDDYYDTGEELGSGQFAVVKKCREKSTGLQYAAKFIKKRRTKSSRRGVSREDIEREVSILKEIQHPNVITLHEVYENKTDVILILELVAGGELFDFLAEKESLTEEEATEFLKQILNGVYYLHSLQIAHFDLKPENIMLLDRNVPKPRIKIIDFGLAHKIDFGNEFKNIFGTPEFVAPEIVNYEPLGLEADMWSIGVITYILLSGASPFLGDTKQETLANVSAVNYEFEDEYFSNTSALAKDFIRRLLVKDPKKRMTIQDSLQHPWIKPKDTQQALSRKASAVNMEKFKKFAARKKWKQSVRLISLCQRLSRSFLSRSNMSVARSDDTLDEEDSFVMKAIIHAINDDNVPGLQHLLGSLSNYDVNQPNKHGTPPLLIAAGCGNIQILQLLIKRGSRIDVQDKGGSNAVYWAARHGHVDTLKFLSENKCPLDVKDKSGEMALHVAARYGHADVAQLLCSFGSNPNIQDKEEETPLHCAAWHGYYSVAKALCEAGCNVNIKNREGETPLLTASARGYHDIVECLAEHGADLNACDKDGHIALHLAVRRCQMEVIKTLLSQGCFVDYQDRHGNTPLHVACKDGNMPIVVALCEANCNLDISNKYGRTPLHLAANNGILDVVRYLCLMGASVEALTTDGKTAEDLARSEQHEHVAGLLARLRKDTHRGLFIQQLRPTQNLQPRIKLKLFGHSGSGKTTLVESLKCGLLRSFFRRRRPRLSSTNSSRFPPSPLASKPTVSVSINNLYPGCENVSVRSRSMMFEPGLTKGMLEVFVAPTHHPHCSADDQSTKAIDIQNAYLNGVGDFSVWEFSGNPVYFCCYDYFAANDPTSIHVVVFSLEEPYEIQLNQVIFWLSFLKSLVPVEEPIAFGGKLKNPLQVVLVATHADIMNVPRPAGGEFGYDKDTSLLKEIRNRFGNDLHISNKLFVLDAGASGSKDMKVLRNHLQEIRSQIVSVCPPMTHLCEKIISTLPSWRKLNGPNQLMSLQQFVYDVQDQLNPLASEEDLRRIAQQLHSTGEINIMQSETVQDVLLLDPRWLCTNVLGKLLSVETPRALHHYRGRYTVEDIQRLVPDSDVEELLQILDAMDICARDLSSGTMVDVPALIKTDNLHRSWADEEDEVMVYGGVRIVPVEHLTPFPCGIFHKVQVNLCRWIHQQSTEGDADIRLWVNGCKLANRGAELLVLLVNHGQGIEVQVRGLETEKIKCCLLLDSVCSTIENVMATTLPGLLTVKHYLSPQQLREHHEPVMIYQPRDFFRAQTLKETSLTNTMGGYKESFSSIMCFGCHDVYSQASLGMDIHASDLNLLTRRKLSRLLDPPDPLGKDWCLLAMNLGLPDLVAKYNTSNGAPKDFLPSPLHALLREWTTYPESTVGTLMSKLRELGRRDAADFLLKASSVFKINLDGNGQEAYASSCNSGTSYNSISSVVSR
UniProt Q16665: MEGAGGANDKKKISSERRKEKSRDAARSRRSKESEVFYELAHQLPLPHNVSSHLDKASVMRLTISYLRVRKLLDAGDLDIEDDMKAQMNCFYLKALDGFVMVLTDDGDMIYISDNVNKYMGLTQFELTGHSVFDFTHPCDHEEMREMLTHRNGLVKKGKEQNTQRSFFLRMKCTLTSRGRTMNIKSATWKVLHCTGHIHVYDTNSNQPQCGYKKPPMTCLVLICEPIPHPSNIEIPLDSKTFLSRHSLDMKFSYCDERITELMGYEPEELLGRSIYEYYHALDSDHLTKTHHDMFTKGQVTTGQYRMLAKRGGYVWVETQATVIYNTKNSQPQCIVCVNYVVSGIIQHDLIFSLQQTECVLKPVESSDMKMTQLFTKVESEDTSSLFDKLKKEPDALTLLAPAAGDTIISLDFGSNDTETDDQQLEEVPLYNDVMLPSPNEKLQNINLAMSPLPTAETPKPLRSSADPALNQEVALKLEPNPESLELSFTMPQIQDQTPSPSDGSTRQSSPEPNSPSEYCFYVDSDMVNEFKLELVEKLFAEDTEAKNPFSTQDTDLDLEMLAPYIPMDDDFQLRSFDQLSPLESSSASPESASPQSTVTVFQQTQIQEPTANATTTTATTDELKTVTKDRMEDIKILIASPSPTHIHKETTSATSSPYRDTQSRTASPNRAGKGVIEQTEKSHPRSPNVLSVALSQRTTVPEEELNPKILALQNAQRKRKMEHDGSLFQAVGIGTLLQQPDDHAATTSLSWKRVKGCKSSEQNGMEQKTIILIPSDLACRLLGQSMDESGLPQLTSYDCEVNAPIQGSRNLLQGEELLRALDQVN

Results are given in words; binding and its absence hold for the method and conditions named. Binding seen in cells or lysates may run through a third protein. Some entries that bind do so weakly or less than the wild type. For some of these results: Sequences can lack the tags named with a protein.

As for “FLAG-PHD2 (prolyl hydroxylase domain protein 2), in Jurkat cells (from UniProt Q9GZT9 1-426) (enzyme)”, in assay [1], the binding result was “binds”.

For the molecule “HIF-1α (hypoxia-inducible factor 1α), transfected (from UniProt Q16665 1-826)”, the binding result in assay [2] is listed as “binds”.

Turning to “endogenous HIF-1α in Jurkat cells (from UniProt Q16665 1-826)”, the binding result in assay [3] is “binds”.

B1: N-terminal (aa 1–180) domain of FLAG-PHD2 (domain or fragment, UniProt Q9GZT9 1-180)
chain: MANDSGGPGGPSPSERDRQYCELCGKMENLLRCSRCRSSFYCCKEHQRQDWKKHKLVCQGSEGALGHGVGPHQHSGPAPPAAVPPPRAGAREPRKAAARRDNASGDAAKGKVKAKPPADPAAAASPCRAAAGGQGSAVAAEAEPGKEEPPARSSLFQEKANLYPPSNTPGDALSPGGGLR
Consider B1, for which, in assay [4], the binding result is reported as “binds”.
